According to PubChem BioAssay AID2551 (National Center for Advancing Translational Sciences (NCATS), 2010):
“And” between values parts separate entries of the source, which are not always exact repeats. Equal values may be shown once. Screen size: about 310,000 compounds; about 17,000 (5.5%) were called active. Inconclusive results, whose numbers are uncertain, are shown with a selection of clear calls. Calls come from the whole dose curve; as a rule, active = well fitted inhibition curve with a large enough effect; inconclusive = small, poorly fitted or top-dose-only effect, or effect the other way; inactive = no such curve, though single readings can be large or run the other way. Where the call is inconclusive, the potency comes from a doubtful curve fit.

Sequences of proteins named here, by UniProt entry; tags and fusion partners are left off. A change or cut given only in a name is not applied to a line headed by its entry.
UniProt P51450: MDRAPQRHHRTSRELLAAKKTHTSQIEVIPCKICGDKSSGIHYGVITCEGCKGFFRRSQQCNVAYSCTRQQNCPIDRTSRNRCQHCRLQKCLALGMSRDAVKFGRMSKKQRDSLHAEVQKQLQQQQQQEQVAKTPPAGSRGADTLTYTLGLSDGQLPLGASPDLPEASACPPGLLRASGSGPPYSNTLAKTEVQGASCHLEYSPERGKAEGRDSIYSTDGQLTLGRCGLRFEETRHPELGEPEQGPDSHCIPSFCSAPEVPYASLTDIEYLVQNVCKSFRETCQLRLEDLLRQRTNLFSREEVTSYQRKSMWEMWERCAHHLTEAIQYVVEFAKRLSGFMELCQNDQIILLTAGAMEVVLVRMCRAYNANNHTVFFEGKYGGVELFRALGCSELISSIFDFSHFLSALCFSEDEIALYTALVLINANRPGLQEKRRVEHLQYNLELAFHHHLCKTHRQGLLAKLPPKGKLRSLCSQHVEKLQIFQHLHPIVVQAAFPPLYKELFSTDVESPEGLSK

What follows are compounds tested against Nuclear receptor ROR-gamma (Mus musculus) (UniProt P51450) (assay: qHTS for inhibitors of ROR gamma transcriptional activity). Conditions: Drosophila S2 Gal4-RORgamma UAS-luciferase reporter, 20 h; series mostly up to 53.6 µM.
Method in brief: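 Luminescence from a UAS-regulated Photinus luciferase reporter in stably transfected Drosophila Schneider cells is measured; decreased signal marks ROR gamma inhibition. Fusion expression is induced by 700 uM copper sulfate for 20 hr.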
Note: nearly all actives have a fitted effect of over 60% in size.
Potency is the fitted concentration of half-maximal effect.

Compound	Potency
CN1C(=O)/C(=C/c2ccccc2OCc2ccccc2F)NC1=S	active: 1.58 µM
CC1=NN(C(=O)c2ccc(C)o2)C(O)(c2ccccc2)C1 (stereo unspecified)	active: 3.16 µM
COc1cc2c(cc1OC)C(C)N(C(=O)C1COc3ccccc3O1)CC2 (stereo unspecified)	inconclusive: 11.2 µM [inhibitor, single point]
CC(C)OC(=O)CNc1n[nH]c(=S)[nH]c1=O	inactive
Cc1ccc(SCc2cc(=O)n3ccsc3n2)c(C)c1	inconclusive: 14.1 µM [activator, single point]
S=C(NCCc1ccc(Cl)cc1)NCc1ccco1	active: 11.2 µM
CN(C)/C=C(\C#N)S(=O)(=O)C(C)(C)C	inactive
Cc1c(Cl)cccc1Nc1ncccc1C(=O)O	inconclusive: 35.5 µM [activator, single point] and inconclusive: 22.4 µM [activator, single point]
Cc1ccc2nc(CSc3nc(C)ccc3C#N)[nH]c2c1	active: 3.55 µM
CCC(=O)c1ccc(-c2ccccc2)cc1	inconclusive: 3.98 µM [activator, partial curve]
CCC(=O)NNC(=S)NC(=O)c1ccc(C)cc1	active: 3.16 µM
Nn1c(Cc2cccc3ccccc23)nnc1SCCOc1ccc(Br)cc1	inconclusive: 11.2 µM [activator, partial curve]
Cc1ccccc1OCCNC(=S)Nc1ccccc1	active: 3.16 µM
Cc1nc2nc(SCC(=O)C(C)(C)C)[nH]c2cc1Br	inconclusive: 8.91 µM [activator, partial curve, poor fit]
Cc1ccc(S(=O)(=O)Nc2ccccc2C(=O)Nc2sccc2C(=O)NN(C)C)cc1	inconclusive: 15.8 µM [inhibitor, single point]
Cc1onc(-c2ccccc2)c1C(=O)Oc1ccccc1	inactive
Cc1nn(CC(=O)N/N=C/c2cccs2)c(C)c1[N+](=O)[O-]	inconclusive: 12.6 µM [inhibitor, single point]
Cc1cc(C)n2nc(N)c(N=Nc3cccc(Cl)c3)c2n1	inconclusive: 35.5 µM [inhibitor, single point]
COc1ccc(/C=N/NC(=O)c2c(C)n(C)c3ccc(OC)cc23)c(OC)c1	inconclusive: 22.4 µM [inhibitor, single point]
CN(C(=O)COC(=O)c1cccnc1Nc1ccccc1F)C1CCS(=O)(=O)C1 (stereo unspecified)	inconclusive: 8.91 µM [activator, partial curve]
C/C(=C\C(=S)Nc1ccccc1)Nc1ccccc1	active: 10 µM
O=[N+]([O-])c1ccc(-c2csc3[n+]2CCS3)cc1	inactive
c1ccc(CN2CCN(C3=Nc4cccc5cccc3c45)CC2)cc1	inconclusive: 11.2 µM [inhibitor, single point]

3 structures from above, sorted by heavy-atom count, ascending:
Compound	Potency
CN(C)/C=C(\C#N)S(=O)(=O)C(C)(C)C	inactive
CCC(=O)NNC(=S)NC(=O)c1ccc(C)cc1	active: 3.16 µM
Cc1nc2nc(SCC(=O)C(C)(C)C)[nH]c2cc1Br	inconclusive: 8.91 µM [activator, partial curve, poor fit]

Next part

Compound	Potency
CCC(=O)Nc1nnc(-c2ccc(OC)cc2)o1	inconclusive: 0.316 µM [inhibitor, full curve, poor fit]
COc1ccc(-c2nn(-c3ccccc3)cc2C2CC(c3cccs3)=NN2C(=O)CCC(=O)O)cc1 (stereo unspecified)	inconclusive: 10 µM [activator, partial curve]
C/C(=N\NC(=O)c1cc2ccccc2cc1O)c1ccc2c(c1)OCO2	active: 15.8 µM
Cc1cc(N/N=C/c2ccc(Cl)cc2Cl)nc(NCc2ccccc2)n1	inconclusive: 22.4 µM [inhibitor, single point]
Cc1ccc(NC(=S)c2ccccc2)cc1	active: 11.2 µM
COC(=O)c1ccccc1NC(=S)NC(=O)c1ccc2ccccc2c1	inconclusive: 0.794 µM [inhibitor, single point]
CC1CCN(c2c(NCc3ccc(C(=O)N4c5ccccc5CC4C)cc3)c(=O)c2=O)CC1 (stereo unspecified)	inconclusive: 3.98 µM [activator, partial curve]
Cc1ccc(-c2ccc(C(=O)Nc3ccccc3)o2)c2ccccc12	inconclusive: 35.5 µM [inhibitor, single point]
COc1ccc(N2CC(C(=O)N3CCN(Cc4ccc5c(c4)OCO5)CC3)CC2=O)cc1 (stereo unspecified)	inconclusive: 22.4 µM [activator, single point]
O=C(NCc1cccnc1)/C(=C/c1ccc(-c2cccc(Cl)c2)o1)S(=O)(=O)c1ccccc1	active: 11.2 µM
Cc1cccc(OCc2nnc(SCC(=O)N3c4ccccc4CC3C)n2C)c1C (stereo unspecified)	inconclusive: 35.5 µM [inhibitor, single point]
COC(=O)c1ccccc1NC(=O)N1c2ccccc2CC1C (stereo unspecified)	inactive
Cc1ccc(NC(=O)c2cc(C)n(-c3cccc(C)c3)c2C)cc1	inactive
COc1cccc(N(CC(=O)Nc2ccc3c(c2)OCO3)S(=O)(=O)c2ccccc2)c1	inconclusive: 15.8 µM [activator, single point]
CCC(=O)c1cc2c(C)cc(=O)oc2c(C)c1OC	inactive
COc1ccc(C(=O)NC(=S)NNC(=O)c2ccc(NC(C)=O)cc2)cc1Br	active: 7.94 µM
O=S(=O)(c1cnccc1N1CCN(CCO)CC1)N1CCCCC1	inconclusive: 5.62 µM [inhibitor, single point]
CCCCc1ccc(NC(=O)C(=O)NCCN2CCN(Cc3ccc([N+](=O)[O-])cc3)CC2)cc1	inconclusive: 5.62 µM [activator, partial curve]
O=C(COc1ccc(Cl)cc1)N1CCN(C(=O)c2cccc(F)c2)CC1	inconclusive: 2.82 µM [inhibitor, single point]
Cn1c(=O)n(C)c2cc(S(=O)(=O)Nc3ccc(F)cc3)ccc21	inconclusive: 11.2 µM [activator, partial curve]
COc1ccc(-n2c(SCC(N)=O)nnc2-c2ccccc2F)cc1	inconclusive: 0.0355 µM [activator, partial curve, poor fit]
CCn1c2ccccc2c2nnc(SCC(=O)c3c(N)n(C)c(=O)n(C)c3=O)nc21	inconclusive: 3.16 µM [inhibitor, single point]
Oc1ccc(N=Cc2sc3ccccc3c2Cl)cc1	inconclusive: 22.4 µM [inhibitor, single point]
